# Experimental data reported in paper PMC5311971.
# Sequences of proteins named here, by UniProt entry; tags and fusion partners are left off. A change or cut given only in a name is not applied to a line headed by its entry.
# UniProt P0AA16: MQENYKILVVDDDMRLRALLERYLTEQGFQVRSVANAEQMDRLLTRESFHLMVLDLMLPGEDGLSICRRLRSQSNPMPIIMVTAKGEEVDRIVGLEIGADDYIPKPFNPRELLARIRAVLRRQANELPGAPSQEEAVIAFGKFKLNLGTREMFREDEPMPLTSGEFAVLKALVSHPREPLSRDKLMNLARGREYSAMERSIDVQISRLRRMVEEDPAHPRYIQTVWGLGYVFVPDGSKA
# Biological target: OmpR (phosphorylated, purified from LB culture) (UniProt P0AA16)
# Assay: EMSA
# Conditions: 10 mM Tris pH 7.5, 100 mM KCl, 10 mM MgCl2, 1 mM DTT, 5% glycerol, 20 uL, ~80 ng DNA, 30 min at room temperature, 5% native TBE gel, ethidium bromide, recombinant protein
# [1] = probe letters rebuilt from the primers and the genome
Sequence,binding result (300 ng OmpR),binding result [1]
AATTTTTTCACATATTTACATTTAATCACACAATTTCACTTTCATTACAT (double strand) [Pmic fragment 10 (-61/-110)],binds,
ACCTTTCCGTCAACAAGAGGTTTTGGTTGAATAATATTAATATTTGATATGCATCTTACCTGTGTGATGTTAAAGTTTTATACTATAATATATTTAACAATATAACAAAGCCGTTTATTCCCGCATGTAACAGCATTGGATAG (double strand) [PmicD-20/-163],,no binding
CCGGAATTCATGGAAAACCTGAATATGGATCTGCTGTACATGGCTGCCGCTGTGATGATGGGTCTGGCGGCAATCGGTGCTGCGATCGGTATCGGCATCCTCGGGGGTAAATTCCTGGAAGGCGCAGCGCGTCAACCTGATCTGATTCCTCTGCTGCGTACTCAGTTCTTTATCGTTATGGGTCTGGTGGATGCTATCCCGATGATCGCTGTAGGTCTGGGTCTGTACGTGATGTTCGCTGTCGCGCATCATCACCATCACCATTAGGTCGACGCG (double strand) [atpE fragment],,no binding
TCACACAATTTCACTTTCATTACATTTTTGTTATTGGCTATCTTGAACGCA (double strand) [Pmic fragment 9 (-35/-84)],no binding,

# Construct, isoform or probe ends are uncertain for at least one entry. No signal at the amounts used counts as a negative.
